# The list shows a part of the results, in another mix than the full data. At the low end of the ranking the order means little.
# Amino acid sequences for entries named in this document (tags omitted). A change or cut given only in a name is not applied to a line headed by its entry.
# UniProt Q01892: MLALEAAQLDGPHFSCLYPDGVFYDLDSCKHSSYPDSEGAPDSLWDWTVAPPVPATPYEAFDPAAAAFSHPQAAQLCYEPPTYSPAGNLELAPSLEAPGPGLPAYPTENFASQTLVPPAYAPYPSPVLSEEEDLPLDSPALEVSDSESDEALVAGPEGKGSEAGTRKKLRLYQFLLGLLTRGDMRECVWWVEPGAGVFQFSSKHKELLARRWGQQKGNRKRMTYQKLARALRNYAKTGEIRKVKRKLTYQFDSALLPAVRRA
# UniProt Q99607: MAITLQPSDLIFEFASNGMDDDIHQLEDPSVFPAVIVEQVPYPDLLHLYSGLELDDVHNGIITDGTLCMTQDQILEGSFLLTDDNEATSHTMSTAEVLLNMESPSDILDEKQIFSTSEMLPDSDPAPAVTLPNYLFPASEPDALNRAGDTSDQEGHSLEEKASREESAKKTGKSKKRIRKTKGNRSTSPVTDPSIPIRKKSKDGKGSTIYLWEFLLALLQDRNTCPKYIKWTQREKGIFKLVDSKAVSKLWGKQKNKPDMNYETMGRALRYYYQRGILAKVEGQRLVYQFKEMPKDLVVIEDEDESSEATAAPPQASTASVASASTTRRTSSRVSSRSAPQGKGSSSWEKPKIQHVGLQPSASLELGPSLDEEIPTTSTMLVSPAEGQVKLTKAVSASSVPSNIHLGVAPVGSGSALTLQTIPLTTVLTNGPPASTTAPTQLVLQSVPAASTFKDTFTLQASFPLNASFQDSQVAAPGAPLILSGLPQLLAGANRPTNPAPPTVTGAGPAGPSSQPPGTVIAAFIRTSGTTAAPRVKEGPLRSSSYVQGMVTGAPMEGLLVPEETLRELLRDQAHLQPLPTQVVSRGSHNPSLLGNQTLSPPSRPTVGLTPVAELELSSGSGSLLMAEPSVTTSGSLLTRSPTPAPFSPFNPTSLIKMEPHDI
# How the values were obtained:
# Test in all cases: DAPPL (digital affinity profiling via proximity ligation, sequencing)
# Settings in all cases: 10 mM Tris-HCl pH 7.5, 50 mM NaCl, 1 mM DTT, 4% glycerol, room temperature, 30 min; GST-TFs on glutathione beads, 16-mer random dsDNA library, 0.1% …; high values mean tight binding; double strand, one strand shown; scale: fold enrichment (6-mer frequency, TF over GST control)
# FLI1 = molecular target: T1, FLI1 (UniProt Q01543)
# T1 sequence: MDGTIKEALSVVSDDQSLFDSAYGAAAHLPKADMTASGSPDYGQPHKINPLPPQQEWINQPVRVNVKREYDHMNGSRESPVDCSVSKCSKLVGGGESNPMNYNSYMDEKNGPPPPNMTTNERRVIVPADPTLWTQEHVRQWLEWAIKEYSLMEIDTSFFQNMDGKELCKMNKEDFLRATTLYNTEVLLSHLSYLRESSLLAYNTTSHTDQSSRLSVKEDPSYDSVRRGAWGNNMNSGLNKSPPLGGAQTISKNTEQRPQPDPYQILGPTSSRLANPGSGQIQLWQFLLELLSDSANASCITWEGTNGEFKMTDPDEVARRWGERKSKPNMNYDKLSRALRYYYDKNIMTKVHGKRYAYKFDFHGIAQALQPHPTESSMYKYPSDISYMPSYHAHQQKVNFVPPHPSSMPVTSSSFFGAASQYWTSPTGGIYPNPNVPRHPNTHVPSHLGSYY
# EHF = molecular target: T2, EHF (UniProt Q9NZC4)
# T2 sequence: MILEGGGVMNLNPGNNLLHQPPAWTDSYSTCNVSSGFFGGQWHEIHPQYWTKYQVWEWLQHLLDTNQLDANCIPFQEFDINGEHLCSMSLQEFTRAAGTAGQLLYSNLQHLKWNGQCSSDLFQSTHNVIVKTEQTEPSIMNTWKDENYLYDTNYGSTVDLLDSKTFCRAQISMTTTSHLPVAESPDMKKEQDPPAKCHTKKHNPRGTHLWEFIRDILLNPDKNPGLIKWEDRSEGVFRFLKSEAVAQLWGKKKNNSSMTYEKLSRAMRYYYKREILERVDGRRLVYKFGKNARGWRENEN
# SPIB = SPIB (UniProt Q01892)
# ELF4 = ELF4 (UniProt Q99607)
# ETV2 = molecular target: T3, ETV2 (UniProt O00321)
# T3 sequence: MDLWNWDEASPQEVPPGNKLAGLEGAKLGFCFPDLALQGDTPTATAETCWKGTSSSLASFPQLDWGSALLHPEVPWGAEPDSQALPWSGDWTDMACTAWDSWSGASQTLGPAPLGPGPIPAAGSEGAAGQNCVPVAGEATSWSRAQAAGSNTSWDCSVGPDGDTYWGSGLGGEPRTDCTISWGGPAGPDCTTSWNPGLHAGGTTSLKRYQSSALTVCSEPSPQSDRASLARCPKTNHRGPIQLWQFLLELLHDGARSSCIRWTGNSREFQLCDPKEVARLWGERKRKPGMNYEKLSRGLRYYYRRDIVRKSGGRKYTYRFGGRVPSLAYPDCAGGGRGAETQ
# ETV3L = molecular target: T4, ETV3L (UniProt Q6ZN32)
# T4 sequence: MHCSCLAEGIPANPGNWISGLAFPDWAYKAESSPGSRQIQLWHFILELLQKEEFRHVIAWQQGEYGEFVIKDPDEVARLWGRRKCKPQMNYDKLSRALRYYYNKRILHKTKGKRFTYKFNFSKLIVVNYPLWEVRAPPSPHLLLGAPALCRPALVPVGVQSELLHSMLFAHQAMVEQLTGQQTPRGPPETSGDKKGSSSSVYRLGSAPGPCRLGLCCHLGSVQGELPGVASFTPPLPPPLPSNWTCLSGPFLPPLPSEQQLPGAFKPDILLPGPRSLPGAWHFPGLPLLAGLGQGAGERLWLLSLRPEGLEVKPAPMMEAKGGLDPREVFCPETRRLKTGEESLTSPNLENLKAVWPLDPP
Sequence,binding signal (FLI1),binding signal (EHF),binding signal (SPIB),binding signal (ELF4),binding signal (ETV2),binding signal (ETV3L)
ACCCAA,1.12,0.979,1.08,1.18,–,–
CTCCGT,1.32,–,1.13,1.3,–,–
TGCGGA,1.35,1.37,1.29,1.24,–,–
AGGTCT,1.31,–,1.22,1.2,–,–
CATGCA,1.1,–,1.07,1.11,–,–
ACTTCG,1.38,–,1.39,1.47,–,–
ACAATG,1.1,–,–,–,0.929,–
CTAGTA,1.08,1.08,1.1,1.07,–,–
GTATCT,1.23,1.09,1.25,1.14,–,–
TCCTGT,1.8,1.67,–,1.65,–,–
ATCCCA,1.07,–,1.05,1.1,–,–
ACCCCC,1.17,–,1.21,1.2,–,1.16
CATAGC,0.968,–,0.969,0.998,–,0.964
CAAATG,1.11,1.1,1.13,1.15,–,–
TAATAT,1.36,1.3,1.21,1.28,–,1.34
TTTCCA,1.37,–,1.39,1.39,–,–
AACGCA,0.997,1.04,–,0.972,–,–
GGTTAT,1.07,–,0.999,0.95,–,0.933
GATGCG,1.07,–,1.19,1.14,–,–
ATAATC,1.17,1.14,–,1.13,–,–
TCTCTC,1.37,1.36,–,1.44,–,–
TCCTGA,1.43,1.45,1.46,1.39,–,–
CCCACT,1.36,–,1.26,1.43,–,1.37
TTTTTG,1.43,1.27,–,1.45,–,–
TAGTGC,1.05,0.987,1.03,0.991,–,–
AAATCA,1.12,1.25,–,1.24,–,–
CATACA,1.11,–,1.08,1.15,–,0.988

# Rewritten bar-delimited: entries from further up.
Sequence | binding signal (FLI1) | binding signal (EHF) | binding signal (SPIB) | binding signal (ELF4) | binding signal (ETV2) | binding signal (ETV3L)
CCCACT | 1.36 | – | 1.26 | 1.43 | – | 1.37
TAGTGC | 1.05 | 0.987 | 1.03 | 0.991 | – | –

# Reference: article PMC7862700
